# Measurements reported in PubChem BioAssay AID2685 (National Center for Advancing Translational Sciences (NCATS), 2010).
# The other results are listed elsewhere or left out. Further columns of the screen follow, without active or inactive calls. The list favours compounds with an active or inconclusive main result. The note in brackets gives the kind of curve behind each potency; many fits are weak.
# Assay: qHTS Assay for Lipid Storage Modulators in Drosophila S3 Cells;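 as to cell number change: cells counted by Cell Tracker Red CMTPX staining in the red channel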
# Conditions: BODIPY lipid droplet fluorescence, 18-24 h; for cell number change: measured here: cell count max response, cells fed with added oleic acid
# In short: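 Laser-scanning cytometry quantifies lipid droplet accumulation (500–530 nm total intensity; droplet/cell object ratio) in oleic acid-fed (400 uM added) Drosophila S3 cells treated with a concentration series. 20 uM Triacsin C defined 100% inhibition.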
# [1] = measured here: lipid fluorescence (Fed channel) AC50, cells fed with added oleic acid
# [2] = measured here: cell number channel AC50, cells fed with added oleic acid
compound,measurement,setting,value
COc1ccccc1NC1=Nc2cccc3cccc1c23,cell number change,,5.44%
same,AC50,[1],"4.11 µM [rising, single point]"
CCOc1ccc(S(=O)(=O)N(CC)CC)cc1NS(=O)(=O)c1ccc(F)c(F)c1F,cell number change,,-38.6%
same,AC50,[2],"11.6 µM [falling, partial curve]"
same,AC50,[1],"9.2 µM [falling, partial curve]"
CCOc1ccc(-c2n[nH]c(=S)c3ccccc23)cc1,cell number change,,-11.3%
Cn1ncc2c1ncn1nc(CCc3ccccc3)nc21,cell number change,,22%
same,AC50,[1],"29.1 µM [rising, single point]"
COC(=O)C(CC(C)C)NC(=O)/C=C/c1ccc(Cl)cc1 (centres undefined),cell number change,,21.7%
same,AC50,[1],"0.206 µM [falling, full curve, poor fit]"
CC(C)OCCCNC(=O)c1cc2c(=O)n(C)c3ccccc3c2n1C,cell number change,,-21.5%
same,AC50,[1],"14.6 µM [falling, partial curve, poor fit]"
CC(C)n1cnc2cc(NC(=O)c3ccco3)ccc21,cell number change,,-6.72%
same,AC50,[2],"0.116 µM [rising, full curve, poor fit]"
Cn1nc(-c2ccccc2)c(C(=O)Nc2ccc(Cl)cc2)c1Cl,cell number change,,30.7%
same,AC50,[2],"4.61 µM [rising, full curve]"
CCCn1c(N)nc2ccccc21,AC50,[2],"0.731 µM [falling, full curve, poor fit]"
CCOc1ccc(N(CC)C(=O)COc2cc(=O)n(C)c3ccccc23)cc1,AC50,[1],"6.51 µM [rising, single point]"
CCCN(CCC)CCCNC(=S)Nc1ccc2nc(N3CCN(C)CC3)cc(C)c2c1,cell number change,,58.2%
COc1ccc(-c2cc(C(=O)NCCCN3CCOCC3)no2)cc1,cell number change,,20.3%
same,AC50,[1],"29.1 µM [rising, single point]"
Cc1nnc2c(N3CCN(C(=O)c4ccco4)CC3)nc3ccccc3n12,cell number change,,-28.4%
same,AC50,[2],"4.61 µM [falling, full curve, poor fit]"
same,AC50,[1],"0.651 µM [falling, full curve, poor fit]"
CCN1CCc2c(sc(N)c2C#N)C1,cell number change,,-104%
same,AC50,[2],"29.1 µM [falling, single point]"
CN(CC(=O)NC(=O)NCc1ccccc1)Cc1ccc(Cl)c(Cl)c1,cell number change,,-4.72%
same,AC50,[1],"6.51 µM [rising, partial curve]"
COc1ccc(S(=O)(=O)N2CCC(C(=O)N3CCOCC3)CC2)cc1,cell number change,,32.9%
same,AC50,[2],"5.8 µM [rising, full curve, poor fit]"
same,AC50,[1],"29.1 µM [rising, single point]"
Cc1ccc(NS(=O)(=O)c2cc([N+](=O)[O-])ccc2NNC(=S)Nc2cc(C)ccc2C)c(C)c1,cell number change,,2.85%
CC1CCC(NC(=O)c2cccc(S(=O)(=O)N3CCN(c4ccc(F)cc4)CC3)c2)CC1 (centres undefined),cell number change,,-25.7%
same,AC50,[1],"5.8 µM [falling, full curve]"
O=C1CC(c2ccco2)Cc2nc(Nc3nc(-c4ccccc4)c4ccccc4n3)ncc21 (centres undefined),cell number change,,15%
same,AC50,[1],"0.092 µM [rising, single point]"
CN(C)S(=O)(=O)c1ccc(N2CCCC2)c(C(=O)Nc2ccc(Br)cc2F)c1,cell number change,,33.9%
same,AC50,[2],"5.17 µM [rising, partial curve]"
same,AC50,[1],"10.3 µM [rising, partial curve]"
Cc1cc(NC(=O)c2ccccc2)c(Cl)cc1N,cell number change,,15.1%
same,AC50,[1],"10.3 µM [rising, partial curve, poor fit]"
O=S(=O)(Nc1ccc(-c2cn3ccsc3n2)cc1)c1ccc2c(c1)OCCO2,cell number change,,-6.3%
same,AC50,[1],"0.366 µM [rising, full curve]"
COc1cc(OC)c(C(=S)N2CCCC2)cc1OC,cell number change,,-4.01%
same,AC50,[1],"29.1 µM [rising, single point]"
CC(C)Oc1cccc(C(=O)C2CCCN(C(=O)c3cc(C(F)(F)F)[nH]n3)C2)c1 (centres undefined),cell number change,,-16.4%
same,AC50,[1],"16.4 µM [rising, partial curve]"
Cc1ccccc1/C=C/c1nc2ccccc2c(=O)[nH]1,cell number change,,-24.9%
O=C(NC1CCCC1)c1ccc(CNc2c(N3CCOCC3)c(=O)c2=O)cc1,cell number change,,6.69%
CN(C(=O)CS(=O)(=O)Cc1ccccc1Cl)c1ccccc1,cell number change,,59.7%
same,AC50,[2],"20.6 µM [rising, partial curve]"
same,AC50,[1],"29.1 µM [rising, partial curve]"
CCN(CC(=O)Nc1c(F)cccc1F)C(=O)CSCc1c(C)noc1C,cell number change,,1.39%
same,AC50,[1],"1.16 µM [falling, full curve]"
CCOC(=O)N1CCC(NC(=O)CCCN2C(=O)CSc3ncccc32)CC1,cell number change,,-22.3%
same,AC50,[2],"0.00411 µM [falling, full curve, poor fit]"
same,AC50,[1],"0.13 µM [falling, full curve]"
Cc1sc2nc(CSCC(=O)Nc3ccc(Cl)cc3F)[nH]c(=O)c2c1C,cell number change,,23.5%
same,AC50,[1],"23.1 µM [rising, partial curve, poor fit]"
CCCCN(C)C(=O)c1cccc(OC2CCN(CC(C)(C)C)CC2)c1,cell number change,,-16.8%
CC1(C)CC(=O)C2=C(C1)N(c1cccc(Cl)c1)C(=O)NC2(C(F)(F)F)C(F)(F)F,cell number change,,13.4%
same,AC50,[2],"0.082 µM [rising, partial curve, poor fit]"
COc1cccc(/C=N/NC(=O)c2ccccc2NC(=O)c2ccco2)c1OC,cell number change,,-2.99%
same,AC50,[1],"0.58 µM [rising, partial curve]"
Cc1cccc(OCC(=O)NNC(=O)c2cc(S(=O)(=O)N(C)C)ccc2N2CCCC2)c1,cell number change,,-3.11%
same,AC50,[1],"29.1 µM [rising, single point]"
NC(=O)[C@@H]1[C@@H]2C(=O)N(c3ccc(F)cc3)C(=O)[C@@H]2[C@H]2C=Cc3ccccc3N21,cell number change,,-13.2%
same,AC50,[1],"20.6 µM [falling, partial curve]"
Cc1ccc2nc(/C(C#N)=C\c3ccc(OC(=O)c4cccs4)cc3)[nH]c2c1,cell number change,,-29.6%
same,AC50,[1],"18.4 µM [falling, single point]"
COCCN1C(=O)C(=O)/C(=C(/O)c2ccc(S(=O)(=O)N3CCOCC3)cc2)C1c1ccc(OC)c(OC)c1 (centres undefined),cell number change,,40.3%
same,AC50,[2],"29.1 µM [rising, single point]"
same,AC50,[1],"1.3 µM [rising, partial curve, poor fit]"
COc1ccc(CCN(C)Cc2c(O)ccc3cc(Br)ccc23)cc1OC,AC50,[1],"0.58 µM [rising, single point]"

# Already shown: entries from further up.
compound,measurement,setting,value
Cn1nc(-c2ccccc2)c(C(=O)Nc2ccc(Cl)cc2)c1Cl,AC50,[2],"4.61 µM [rising, full curve]"
CCCn1c(N)nc2ccccc21,AC50,[2],"0.731 µM [falling, full curve, poor fit]"
CCOc1ccc(N(CC)C(=O)COc2cc(=O)n(C)c3ccccc23)cc1,AC50,[1],"6.51 µM [rising, single point]"
